The test has as its target CD28Ig (human) (UniProt P10747). Briefly: ELISA on CD28Ig-coated plates, detected with anti-human kappa immunoconjugate. In general terms: An ELISA detects its analyte on a solid surface through an enzyme-linked reagent.

By UniProt entry, the sequences of proteins in these tests, tags left out. Residues count along the entry.
UniProt P10747, residues 19-152: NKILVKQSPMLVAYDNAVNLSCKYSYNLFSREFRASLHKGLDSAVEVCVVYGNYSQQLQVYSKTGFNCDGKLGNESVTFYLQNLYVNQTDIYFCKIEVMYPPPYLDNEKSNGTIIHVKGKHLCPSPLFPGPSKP

No constants are given. Whether binding was seen depends on the method and setting. Some entries that bind do so weakly or less than the wild type.

Among the data in patent publication US6881557 are binding values, retold here.

B1: humanized anti-human CD28 (Hu.9.3) Fab fragment (Fab, V domains shown)
VH: EVQLVQSGGGLVQPGGSLRLSCAGSGFTFSDYGVHWVRQAPGKGLEWVSAIWAGGGTNYASSVMGRFTISRDNAKNSLYLQMNSLRAEDMAVYYCARDKGYSYYYSMDYWGQGTLVTVSS
VL: DIVMTQSPDSLAVSLGERATINCRASESVEYYVTSLMAWYQQKPGQPPKLLIYAASNVESGVPDRFSGSGSGTNFSLTISSLQAEDVAVYYCQQSRKVPYTFGQGTKLEIKR
Regarding B1, the binding result is on record as “binds”.
